In patent US7880002B2, “Substituted piperazinyl-pyrrolidine compounds useful as chemokine receptor antagonists” (Millennium Pharmaceuticals, Inc., priority 2004, dated 2011):
Some of these results come from one statement about several compounds together.

Molecular target: T1, CCR1 (Homo sapiens, UniProt P32246)
T1 construct: a monocytic derived cell line that endogenously expresses CCR1; host or cells: THP-1 cells
T1 sequence (P32246 1-355): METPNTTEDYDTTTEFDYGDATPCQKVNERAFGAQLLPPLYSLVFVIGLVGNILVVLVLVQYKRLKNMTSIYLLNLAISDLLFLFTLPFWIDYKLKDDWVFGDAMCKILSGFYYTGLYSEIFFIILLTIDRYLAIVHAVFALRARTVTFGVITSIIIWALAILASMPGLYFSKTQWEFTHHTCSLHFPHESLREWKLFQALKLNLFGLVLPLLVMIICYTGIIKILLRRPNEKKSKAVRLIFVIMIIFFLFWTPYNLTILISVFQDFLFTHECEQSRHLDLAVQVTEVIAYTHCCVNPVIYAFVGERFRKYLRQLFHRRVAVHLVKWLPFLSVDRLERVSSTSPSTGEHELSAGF
Assay: CCR1 inhibition (THP-1 FLIPR assay / THP-1 whole cell radioligand binding assay; the patent does not say which gave the values)
Assay type: cell-based
Conditions: threshold list, less than 1 uM; compounds of Table 1; read-out: inhibitory activity

| SMILES | IC50 |
| --- | --- |
| NC(=O)Nc1ccc2nc(C(F)(F)F)nc(N3C[C@H](O)[C@@H](N4CCN(C(=O)c5ccc(Cl)cc5)CC4)C3)c2c1 (stereo in doubt) [Example 194, N-[4-{3-[4-(4-chlorobenzoyl)piperazin-1-yl]-4-hydroxypyrrolidin-1-yl}-2-(trifluoromethyl)quinazolin-6-yl]urea] | < 1000 nM |
| CNC(=O)Nc1ccc2nc(C(F)(F)F)nc(N3C[C@H](O)[C@@H](N4CCN(C(=O)c5ccc(Cl)cc5)CC4)C3)c2c1 (stereo in doubt) [Example 196, N-[4-{3-[4-(4-chlorobenzoyl)piperazin-1-yl]-4-hydroxypyrrolidin-1-yl}-2-(trifluoromethyl)quinazolin-6-yl]-N′-methylurea] | < 1000 nM |
| O=C(c1ccc(Cl)cc1)N1CCN([C@H]2CN(c3ncnc4c(F)cccc34)C[C@@H]2O)CC1 (stereo in doubt) [Example 197, 4-[4-(4-chlorobenzoyl)piperazin-1-yl]-1-(8-fluoroquinazolin-4-yl)pyrrolidin-3-ol] | < 1000 nM |
| CNC(=O)c1ccc2nc(C(F)(F)F)nc(N3C[C@@H](O)[C@H](N4CCN(C(=O)c5ccc(Cl)cc5)CC4)C3)c2c1 (stereo in doubt) [Example 198, 4-{3-[4-(4-chlorobenzoyl)piperazin-1-yl]-4-hydroxypyrrolidin-1-yl}-N-methyl-2-(trifluoromethyl)quinazoline-6-carboxamide] | < 1000 nM |
| CC(C)(O)c1ccc2nc(C(F)(F)F)nc(N3C[C@@H](O)[C@H](N4CCN(C(=O)c5ccc(Cl)cc5)CC4)C3)c2c1 (stereo in doubt) [Example 199, 4-[4-(4-chlorobenzoyl)piperazin-1-yl]-1-[6-(1-hydroxy-1-methylethyl)-2-(trifluoromethyl)quinazolin-4-yl]pyrrolidin-3-ol] | < 1000 nM |
| O=C(c1ccc(Cl)cc1)N1CCN([C@H]2CN(c3nc(C(F)(F)F)nc4cc(Cl)ccc34)C[C@@H]2O)CC1 (stereo in doubt) [Example 201, 4-[4-(4-chlorobenzoyl)piperazin-1-yl]-1-[7-chloro-2-(trifluoromethyl)quinazolin-4-yl]pyrrolidin-3-ol] | < 1000 nM |
| O=C(c1ccc(Cl)cc1)N1CCN([C@@H]2CN(c3nc(C(F)(F)F)nc4ccc(N5CCNC5=O)cc34)C[C@H]2O)CC1 (stereo in doubt) [Example 202, 1-[4-{3-[4-(4-chlorobenzoyl)piperazin-1-yl]-4-hydroxypyrrolidin-1-yl}-2-(trifluoromethyl)quinazolin-6-yl]imidazolidin-2-one] | < 1000 nM |
| N#Cc1ccc2nc(C(F)(F)F)nc(N3C[C@@H](O)[C@H](N4CCN(C(=O)c5ccc(Cl)cc5)CC4)C3)c2c1 (stereo in doubt) [Example 203, 4-{3-[4-(4-chlorobenzoyl)piperazin-1-yl]-4-hydroxypyrrolidin-1-yl}-2-(trifluoromethyl)quinazoline-6-carbonitrile] | < 1000 nM |
| O=C(c1ccc(Cl)cc1)N1CCN([C@@H]2CN(c3nc(C(F)(F)F)nc4ccc(-c5nn[nH]n5)cc34)C[C@H]2O)CC1 (stereo in doubt) [Example 204, 4-[4-(4-chlorobenzoyl)piperazin-1-yl]-1-[6-(2H-tetrazol-5-yl)-2-(trifluoromethyl)quinazolin-4-yl]pyrrolidin-3-ol] | < 1000 nM |
| O=C(c1ccc(Cl)cc1)N1CCN([C@@H]2CN(c3ccnc4cc(C(F)(F)F)ccc34)C[C@H]2O)CC1 [Example 12, 4-[4-(4-chlorobenzoyl)piperazin-1-yl]-1-[7-(trifluoromethyl)quinolin-4-yl]pyrrolidin-3-ol] | < 1000 nM |
| O=C(c1ccc(Cl)cc1)N1CCN([C@@H]2CN(c3nccc4ccccc34)C[C@H]2O)CC1 [Example 21, 4-[4-(4-chlorobenzoyl)piperazin-1-yl]-1-isoquinolin-1-ylpyrrolidin-3-ol] | < 1000 nM |
| Nc1nc(N2C[C@@H](O)[C@H](N3CCN(C(=O)c4ccc(Cl)cc4)CC3)C2)c2nc[nH]c2n1 [Example 39, 1-(2-amino-9H-purin-6-yl)-4-[4-(4-chlorobenzoyl)piperazin-1-yl]pyrrolidin-3-ol] | < 1000 nM |
| CC(=O)O[C@@H]1CN(c2ccc(Cl)cc2NC(N)=O)C[C@H]1N1CCN(C(=O)c2ccc(Cl)cc2)CC1 [Example 44, 4-[4-(4-chlorobenzoyl)piperazin-1-yl]-1-[5-(4-chlorophenyl)pyrimidin-2-yl]pyrrolidin-3-ol] | < 1000 nM |
| Nc1cc(Cl)ccc1N1C[C@@H](O)[C@H](N2CCN(Cc3ccc(Cl)cc3)CC2)C1 [Example 50, 1-(2-aimno-4-chlorophenyl)-4-[4-(4-chlorobenzyl)piperazin-1-yl]pyrrolidin-3-ol] | < 1000 nM |
| O=C(c1ccc(Cl)cc1)N1CCN([C@@H]2CN(c3cccc(Cl)c3)C[C@H]2O)CC1 [Example 57, 4-[4-(4-chlorobenzoyl)piperazin-1-yl]-1-(3-chloroplienyl)pyrrolidin-3-ol] | < 1000 nM |
| O[C@H]1CN(c2ccnc3cc(Cl)ccc23)C[C@@H]1N1CCN(Cc2ccc(Cl)cc2)CC1 [Example 62, (3S,4S)-4-[4-(4-chlorobenzyl)piperazin-1-yl]1-(7-chloroquinolin-4-yl)pyrrolidin-3-ol] | < 1000 nM |

| SMILES | IC50 |
| --- | --- |
| O=C(c1ccc(Cl)cc1)N1CCN([C@H]2CN(c3ccnc4cc(Cl)ccc34)C[C@@H]2O)CC1 [Example 64] | < 1000 nM |
| O=C(c1ccc(Cl)cc1)N1CCN([C@H]2CN(c3nccc(C(F)(F)F)n3)C[C@@H]2O)CC1 [Example 68, (3S,4S)-4-[4-(4-chlorobenzoyl)piperazin-1-yl]-1-[4-(trifluoromethyl)pyrimidin-2-yl]pyrrolidin-3-ol] | < 1000 nM |
| O[C@@H]1CN(c2cc(-c3ccc(Cl)cc3)ncn2)C[C@H]1N1CCN(Cc2ccc(Cl)cc2)CC1 [Example 74, 4-[4-(4-chlorobenzyl)piperazin-1-yl]-1-[6-(4-chlorophenyl)pyrimidin-4-yl]pyrrolidin-3-ol] | < 1000 nM |
| O=C(c1ccc(Cl)cc1)N1CCN([C@H]2CN(c3cccc(C(F)(F)F)n3)C[C@@H]2O)CC1 [Example 79] | < 1000 nM |
| COC(=O)c1cc(C)nc(N2C[C@@H](O)[C@H](N3CCN(Cc4ccc(Cl)cc4)CC3)C2)n1 [Example 89, methyl 2-{3-[4-(4-chlorobenzyl)piperazin-1-yl]-4-hydroxypyrrolidin-1-yl}-6-methylpyrimidine-4-carboxylate] | < 1000 nM |
| O=C(c1ccc(Cl)cc1)N1CCN([C@@H]2CN(c3nc(-c4ccccc4)nc4ccccc34)C[C@H]2O)CC1 [Example 101, 4-[4-(4-chlorobenzoyl)piperazin-1-yl]-1-(2-phenylquinazolin-4-yl)pyrrolidin-3-ol] | < 1000 nM |
| O=C(c1ccc(Cl)cc1)N1CCN([C@H]2CN(c3ncnc4cc(Cl)ccc34)C[C@@H]2O)CC1 [Example 105, (3S,4S)-4-[4-(4-chlorobenzoyl)piperazin-1-yl]-1-(7-chloroquinazolin-4-yl)pyrrolidin-3-ol] | < 1000 nM |
| O[C@@H]1CN(c2nc(C(F)(F)F)cc(C(F)(F)F)n2)C[C@H]1N1CCN(Cc2ccc(Cl)cc2)CC1 [Example 110, 1-[4,6-bis(trifluoromethyl)pyrimidin-2-yl]-4-[4-(4-chlorobenzyl)piperazin-1-yl]pyrrolidin3-ol] | < 1000 nM |
| CC(C)(C)c1cc(C(F)(F)F)nc(N2CC(O)C(N3CCN(C(=O)c4ccc(Cl)cc4)CC3)C2)n1 (centres unmarked) [Example 129, 1-[4-tert-butyl-6-(trifluoromethyl)pyrimidin-2-yl]-4-[4-(4-chlorobenzoyl)piperazin-1-yl]pyrrolidin-3-ol] | < 1000 nM |
| CC(C)(C)c1cc(C(F)(F)F)nc(N2CC(O)C(N3CCN(Cc4ccc(Cl)cc4)CC3)C2)n1 (centres unmarked) [Example 130, 1-[4-tert-butyl-6-(trifluoromethyl)pyrimidin-2-yl]-4-[4-(4-chlorobenzyl)piperazin-1-yl]pyrrolidin-3-ol] | < 1000 nM |
| O=C(c1ccc(Cl)cc1)N1CCN([C@@H]2CN(c3nc(C(F)(F)F)nc4ncccc34)C[C@H]2O)CC1 [Example 134, 4-[4-(4-chlorobenzoyl)piperazin-1-yl]-1-[2-(trifluoromethyl)pyrido[2,3-d]pyrimidin-4-yl]pyrrolidin-3-ol] | < 1000 nM |
| O[C@@H]1CN(c2ncnc3cc(Cl)ccc23)C[C@H]1N1CCN(Cc2ccc(Cl)cc2)CC1 [Example 141, (3R,4R)-4-[4-(4-chlorobenzyl)piperazin-1-yl]-1-(7-chloroquinazolin-4-yl)pyrrolidin-3-ol] | < 1000 nM |
| Cc1cc(N2C[C@H](O)[C@@H](N3CCN(C(=O)c4ccc(Cl)cc4)CC3)C2)nc2ccc(F)cc12 [Example 147, 4-[4-(4-chlorobenzoyl)piperazin-1-yl]-1-(6-fluoro-4-methylquinolin-2-yl)pyrrolidin-3-ol] | < 1000 nM |
| Cc1cc(C(F)(F)F)nc(N2C[C@H](O)[C@@H](N3CCN(C(=O)c4ccc(Cl)cc4)CC3)C2)n1 [Example 150, (3S,4S)-4-[4-(4-chlorobenzoyl)piperazin-1-yl]-1-[4-methyl-6-(trifluoromethyl)pyrimidin-2-yl]pyrrolidin-3-ol] | < 1000 nM |
| O=C(c1ccc(Cl)cc1)N1CCN([C@@H]2CN(c3cnc4ccc(Cl)cc4n3)C[C@H]2O)CC1 [Example 152, (3R,4R)-4-[4-(4-chlorobenzoyl)piperazin-1-yl]-1-(7-chloroquinoxalin-2-yl)pyrrolidin-3-ol] | < 1000 nM |
| Cc1nc(C(F)(F)F)nc(N2C[C@H](O)[C@@H](N3CCN(C(=O)c4ccc(Cl)cc4)CC3)C2)c1C [Example 157, (3S,4S)-4-[4-(4-chlorobenzoyl)piperazin-1-yl]-1-[5,6-dimethyl-2-(trifluoromethyl)pyrimidin-4-yl]pyrrolidin-3-ol] | < 1000 nM |
